The values below come from PubChem BioAssay (EPA / NIEHS).

SMILES strings stand for the structures. Most of the hits are listed elsewhere, so they are rarer here than in the full data. Inconclusive results are not listed. Active and inactive are the calls of the source. The calls were made as follows: active = hit-call score of the fitted dose curve at least 0.9, where 1 is the maximum; inconclusive = response in the unintended direction; inactive = score below 0.9.

This assay deals with Nuclear receptor subfamily 1 group I member 2 (Mus musculus) (UniProt O54915). Kind of assay: ATG_mPXR_XSP2: Attagene TRANS-FACTORIAL Multi-Species (XSP1) HepG2 Assay for mouse Pregnane X Receptor (PXR) (AID 2283831). An outline of the steps:
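HepG2 cells transiently transfected with GAL4-UAS reporter units expressing chimeric NR-Gal4 proteins; 24 h compound exposure. Reporter mRNA quantified by RT-PCR and capillary electrophoresis fluorescence; gain of signal fitted against DMSO.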

On to `CC(C)(C)c1ccc(O)cc1`, for which the compound was called inactive.
